Measurements as given in PMC8138011.
Results are given in words; binding and its absence hold for the method and conditions named. In cells and extracts the contact can be indirect. Some binding calls cover weakened binding; strength is not graded here. Where a sequence is shown, tags or fusion partners need not be part of it.

By UniProt entry, the sequences of proteins in these tests, tags left out.
UniProt P35998: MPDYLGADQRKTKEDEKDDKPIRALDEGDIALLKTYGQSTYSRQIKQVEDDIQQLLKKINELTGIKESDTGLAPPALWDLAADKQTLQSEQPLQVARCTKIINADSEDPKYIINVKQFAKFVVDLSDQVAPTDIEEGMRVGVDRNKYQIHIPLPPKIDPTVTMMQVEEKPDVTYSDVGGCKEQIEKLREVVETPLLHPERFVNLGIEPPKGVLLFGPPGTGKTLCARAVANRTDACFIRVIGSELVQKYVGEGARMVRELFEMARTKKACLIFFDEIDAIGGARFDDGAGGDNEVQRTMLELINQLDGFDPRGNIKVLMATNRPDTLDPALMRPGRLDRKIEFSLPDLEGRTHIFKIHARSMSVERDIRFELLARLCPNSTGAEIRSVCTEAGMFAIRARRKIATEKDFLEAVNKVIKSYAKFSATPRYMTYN

Target: PSMC2 (proteasome 26 S subunit ATPase 2), Flag-labelled (UniProt P35998)
Assay: co-IP; GBC-SD cells overexpressing Flag-labelled PSMC2 or HA-labelled GNG4; immunocomplexes obtained with antibodies of Flag or HA and analysed with corresponding antibodies

binding: binds
B1: GNG4 (G protein subunit gamma 4), HA-labelled (protein, UniProt P50150 1-75)
chain: MKEGMSNNSTTSISQARKAVEQLKMEACMDRVKVSQAAADLLAYCEAHVREDPLIIPVPASENPFREKKFFCTIL
